At least one structure is not confirmed: it was looked up by name or label, or the drawing left a doubt.
Molecular target: mushroom tyrosinase
Experiment: Test of anthocyanidin compounds for inhibiting tyrosinase activity (Example 11, IC50)
Type: biochemical
Conditions: 25° C., L-Dopa, 475 nm
Experimental: The sample compounds were dissolved in DMSO and diluted with DMSO at adequate concentrations.
1/15M phosphate buffer (70 μl), 70 μl of a solution containing mushroom tyrosinase adjusted at 1 U/μl with a buffer, and 2 μl each of sample solutions dissolved in DMSO at various concentrations were introduced into separate wells of a 96-well plate, and these substances were thoroughly mixed, followed by incubation at 25° C. for 10 minutes.
A solution of 10 mM L-Dopa (70 μl) was added and mixed in immediately thereafter. […] The reaction was carried out at 25° C.
Change (slope) in the absorbance per unit time was designated as the initial rate, and the inhibition of tyrosinase activity (%) was determined by the following equation. Inhibition (%)={1−(initial ratesample/initial ratecontrol)}×100

SMILES | IC50
O=c1c(O[C@@H]2O[C@H](CO)[C@H](O)[C@H](O)[C@H]2O)c(-c2ccc(O)c(O)c2)oc2cc(O)cc(O)c12 [Hyperoside, quercetin-3-galactoside] | > 2 mM
O=c1c(O[C@@H]2O[C@H](CO)[C@@H](O)[C@H](O)[C@H]2O)c(-c2ccc(O)c(O)c2)oc2cc(O)cc(O)c12 [Isoquercitrin, quercetin-3-glucoside] | > 2 mM

Reference: US20070189997A1, “Skin-whitening agent containing polyphenol compound” (Nichirei Foods Inc., priority 2004, published 2007)
